Assay results published in PubChem BioAssay AID1794844 (National Center for Advancing Translational Sciences (NCATS), 2023).
Out of some 2,800 compounds screened, fewer than 10 were called active. Inconclusive results (about 7%) are left out. Calls come from the whole dose curve; as a rule, active = well fitted inhibition curve with a large enough effect; inconclusive = small, poorly fitted or top-dose-only effect; inactive = no such curve, though single readings can be large or run the other way. The list shows a part of the results.

The chains behind the UniProt entries cited, without tags or fusion partners. Where a name states a change or a piece, a line headed by the entry shows the natural chain unless it says otherwise.
UniProt C7C422: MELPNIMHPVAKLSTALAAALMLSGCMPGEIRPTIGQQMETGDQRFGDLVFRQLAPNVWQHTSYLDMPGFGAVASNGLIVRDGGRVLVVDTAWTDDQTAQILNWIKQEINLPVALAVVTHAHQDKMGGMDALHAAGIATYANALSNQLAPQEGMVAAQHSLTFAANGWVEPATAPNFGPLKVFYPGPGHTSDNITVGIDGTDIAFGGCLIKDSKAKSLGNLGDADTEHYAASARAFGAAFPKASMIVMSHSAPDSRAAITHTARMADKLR

biological target: Metallo-beta-lactamase type 2 (Klebsiella pneumoniae) (UniProt C7C422); assay: qHTS to identify inhibitors of the New Delhi Metallo-beta-lactamase (NDM): Nitrocefin screen against the machine-based learning selections.; note: % of control where 0% means no effect; conditions: NDM-1 enzyme, nitrocefin hydrolysis, absorbance 485 nm; activity, negative = inhibition: at the top concentration
Method in brief: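 Hydrolysis by 2 nM NDM-1 was followed by absorbance after >30 min compound preincubation in HEPES pH 7.0 buffer with 1 uM Zn2SO4. For nitrocefin (16.7 uM, 15 min, 485 nm) and meropenem (50 uM, 30 min, 300 nm), each substrate ran on separate plates.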

activity, negative = inhibition, inactive:
COCC(=O)N[C@H]1CO[C@H]2[C@@H]1OC[C@@H]2Nc1nccc(-c2cccc(C#N)c2)n1 4.59% [at 57.5 µM]
O=S(=O)(c1ccc(F)cc1)N1CCCC(Cc2noc(-c3cnccn3)n2)C1 (configuration not stated) -2.02%
COc1ccc(CCc2nc3nccc(-c4ccc(OC)c(OC)c4)n3n2)cc1OC 2.07%
OC1(CN2CCCCC2)CCN(Cc2ccc(C(F)(F)F)cc2F)C1 (configuration not stated) 1.52%
COc1cccc(CC(=O)N[C@@H]2CCC[C@@H](C(=O)NCc3cc(F)cc(F)c3)CC(=O)N(C)C2)c1 0.922%
O=c1c2c(CO)c(-c3ccc(F)cc3)nn2ccn1Cc1cc(F)ccc1F -7.08%
COCc1cc(CNC(=O)c2cn(C3CCC(N)CC3)nn2)[nH]n1 (configuration not stated) -1.37%
Cn1ccc2c(C(=O)N[C@H](c3cccs3)C3CC(O)C3)cccc21 (some centres not stated) -3.78%
OCC1(O)CCN(C2CCN(c3ccc4c(c3)OCO4)CC2)CC1 -2.79%
O=C(CN1CCOc2ccccc2C1)N[C@H]1CCOC[C@H]1C1CCOCC1 1.59%
COC(=O)[C@H](Cc1ccc(OC)cc1)NC(=O)[C@@H]1CN(C(=O)c2cccc(F)c2)CCN1C(C)=O -10.5%
COC[C@H]1CCCN1C(=O)C(C)[C@@H]1CC[C@@]2(C)CC[C@H](NC(C)=O)[C@@H](C)[C@@H]2[C@H]1O (some centres not stated) -3.87% [at 57.5 µM]
CC[C@H]1CN(S(=O)(=O)c2ccccc2)CC[C@H]1CC(=O)NCCOC 2.78% [at 57.5 µM]
O=C1Cc2c(-c3cccc(O)c3)n[nH]c2CN1CC1CC1 -0.331% [at 76.7 µM]
O=C(N[C@H]1CCN2C(=O)[C@@H](Cc3c[nH]c4ccccc34)NC(=O)[C@H]12)c1cnccn1 -5.81% [at 57.5 µM]
CN(C)CCN1CC2(CCCN(C(=O)CN(C)c3ccccc3)C2)CCC1=O (configuration not stated) -14.1%
c1ccc(-c2cn3c(n2)CO[C@@H](CNCc2cccs2)C3)cc1 3.52% [at 57.5 µM]
COc1ccc(C(=O)N2CCC(c3nc(C4CCOCC4)no3)C2)cc1OC (configuration not stated) 0.0138%
COCCN1C[C@H]2CN(C(=O)c3ccccc3OC)CCN2C1=O -2.11% [at 57.5 µM]
O=C(NC1CCCC1)N1CC(c2nnc(-c3ccncc3)o2)C2(CCOCC2)C1 (configuration not stated) -7.8%
O=C(NCCc1csc(-c2cnccn2)n1)C1CC2(CCNCC2)CN1 (configuration not stated) -7.69%
COc1ccc(-c2ccc3ncc(Nc4ccc(CCO)cc4)n3n2)cn1 -0.973% [at 57.5 µM]
COc1cccc(Nc2ccc3c(n2)C(C)(C(=O)NCCc2cnc[nH]2)CN(C)C3)c1 (configuration not stated) 6.74% [at 57.5 µM]
O=C(NCCc1ccccc1)C1CCN(C(=O)c2ncn3c2COC(c2ccc(F)cc2)C3)CC1 (configuration not stated) 5.21%
COCCOc1ccnc(-c2noc([C@@H]3CCCN3Cc3ccc(C(=O)O)cc3)n2)c1 -9.09% [at 57.5 µM]
CSCC(=O)N1C[C@@H](NC(=O)Nc2ccc(F)cc2F)C[C@H]1C(=O)N(C)CC(N)=O -15%
COc1cccc(C(=O)N[C@H]2[C@H](O)[C@H](O)C[C@@H]2c2ccc(N3CCOCC3)nc2)c1 -3.8% [at 57.5 µM]
CC(C)C[C@@H]1N[C@H](C(=O)NCc2cccs2)Cc2c[nH]c3cccc1c23 -5.41% [at 57.5 µM]
O=C(NCc1nc(-c2ccncc2)n[nH]1)[C@H]1CCC[C@H](O)C1 -10.4%
O=c1cc(-c2ccccn2)oc2c(Nc3cccnc3)nccc12 0.933% [at 57.5 µM]
CCC1C(=O)N(C)CCN1C(=O)c1coc(COc2ccc3c(c2)OCO3)n1 (configuration not stated) 10%
COC(C)c1ccc(-c2cc(C(=O)O)cc(S(=O)(=O)NC(C)C)c2)cc1 (configuration not stated) -6.09%
OC1CC(c2cc(NCCCn3ccc4ccccc43)ncn2)C1 (configuration not stated) 1.6%
CNS(=O)(=O)CCNc1nccc(-c2cc(C(=O)O)ccn2)n1 -23.4%
COC[C@H]1C[C@@H](NS(=O)(=O)c2cccc(F)c2)[C@H](O)[C@@H]1O -0.036% [at 57.5 µM]
NS(=O)(=O)c1ccc(-n2nc(-c3ccncc3)nc2C2CCOC2)cc1 (configuration not stated) 0.0285%
CN1CCC(NC[C@H]2COCc3nc4cc(S(C)(=O)=O)ccc4n32)CC1 4.08% [at 57.5 µM]
CCCOc1ccccc1C(=O)N1CC[C@H](N(C)C)[C@H](CCC(=O)O)C1 -5%
NC(=O)CO[C@@H]1CO[C@H]2[C@@H]1OC[C@@H]2NC(=O)NCc1ccccc1 -7.38% [at 57.5 µM]
O=C1NCCCCCN(C(=O)NC2CCCCC2)[C@H]2CCCC[C@@H]12 3.79%
O=C1N(CC2CCC2)CCCC12CCN(Cc1ccc(-c3ccn[nH]3)s1)C2 (configuration not stated) 13.5%
c1ccc(Nc2cc3c(cn2)CN(Cc2ccc4[nH]ccc4c2)CCN3)cc1 21.3% [at 57.5 µM]
Cc1ccccc1N(C)C1CN(Cc2ccccc2)C1 -0.333% [at 57.5 µM]
COCCN1CCC(CN(Cc2ccncc2)C(=O)c2cnco2)CC1 -4.07%
CC(C)(CO)CNC(=O)c1cnc2c(c1)N([S+](=O)([O-])c1cccnc1)CCC2 1.34% [at 57.5 µM]
O=C(Nc1cccnc1)c1ccnc(-c2nnc3ccc(Nc4ccccc4)nn23)c1 3.33% [at 57.5 µM]
Cc1nc2ccc(C(=O)N3C[C@@H](CN4CCCCC4)[C@@H](CO)C3)cc2s1 -12.9%
O=C(Nc1ccccc1)O[C@@H]1CO[C@H]2[C@@H]1OC[C@@H]2NCc1ccccc1 -1.59% [at 57.5 µM]
COCCC(=O)N1CC[C@H](c2nc3ccccc3o2)C1 -7.27% [at 76.7 µM]
CCn1cc(S(=O)(=O)N2CCC3(CC2)CN(Cc2ccc(OC)cc2)C3=O)cn1 -3.15%
Cc1[nH]cnc1CN1CCNc2cc(Nc3ccccc3)ncc2C1 2.62% [at 57.5 µM]
c1cncc(-c2nc3c(c(NCc4ccccc4-n4ccnc4)n2)CNC3)c1 4.93%
CN(C)CCNC(=O)Cc1c[nH]c2ncc(-c3ccccc3)cc12 2.38% [at 57.5 µM]
CC1(CCCCc2ccccc2)COc2ccc(C(=O)NCc3cnccn3)cc2N1 (configuration not stated) 1.6% [at 57.5 µM]
Cc1ccc(CN2CCC(Oc3ccc4ncccc4c3)(C(=O)O)CC2)o1 -4.72%
O=C1CCN(S(=O)(=O)c2ccccc2)CCCN(C2CCCCCC2)CCN1 3.1%
O=C(N[C@H]1C[C@H]2C(=O)NC[C@@H](CCC(=O)N3CCCCC3)N2C1)c1ccco1 -3.2% [at 57.5 µM]
CC(C)NC(=O)NCC1(COc2ccccc2)C[C@@H](O)[C@@H](O)C1 (some centres not stated) 2.06% [at 57.5 µM]
O=C(Cc1ccccc1)N1CCNc2cnc(Nc3ccccc3)nc2C1 6.3% [at 57.5 µM]
CC(C)CS(=O)(=O)Nc1ccc([C@H]2OCC(=O)N(Cc3ccc(F)cc3)[C@@H]2CO)cc1 2.38%
CCn1ncc(N2CCC(NC(=O)c3ccccc3OC)CC2)cc1=O -6.04%
CCNC(=O)c1ccccc1-c1ccc(O)cc1 -2.89%
Cc1cccc(CN2CCNc3cc(Nc4cccnc4)ncc3C2)c1 2.81% [at 57.5 µM]
O=C(CCc1nc2ccccc2s1)N[C@H](c1ccccn1)C1CC(O)C1 (some centres not stated) 1.88%
Cc1nc(C(=O)NC2CC(c3cc(N4CCC(O)C4)ncn3)C2)cs1 (configuration not stated) -0.719%
CC(C)c1noc([C@@H]2C[C@H](NC(=O)Nc3ccc(F)cc3)CN2C)n1 -0.362% [at 57.5 µM]
Cc1noc(C)c1S(=O)(=O)N1CC(c2noc(C3CCCN3C)n2)C1 (configuration not stated) 0.117%
O=C(Nc1ccc([C@H]2OCC(=O)N(C3CCOCC3)[C@@H]2CO)cc1)c1cnccn1 317% [at 57.5 µM]
C[C@]1(CO)[C@H]2Cc3sc(NC(=O)c4ccnc(Cl)c4)nc3[C@@H](CC(=O)NCc3ccco3)[C@]2(C)CC[C@H]1O 0.333%
O=C(Cc1c[nH]c2ncc(-c3ccccc3)cc12)NCc1cnccn1 7.61% [at 57.5 µM]
N[C@H]1CN(C(=O)c2sccc2Cl)C[C@@H]1C1CC1 -7%
CN1CCC(N2C[C@@H]3C[C@H]2C(=O)N(CC2CC2)c2ccccc2O3)CC1 -6.63% [at 57.5 µM]
Fc1ccc(CNc2cc3c(cn2)CN(Cc2ccncc2)CCN3)cc1 2.96% [at 57.5 µM]
Cc1ccccc1NC(=O)c1cnc2c(c1)N(Cc1ccccc1)CCC2 -2.43% [at 57.5 µM]
O=C1Nc2ccc(-c3ccccc3F)cc2C(=O)N2C[C@@H](NS(=O)(=O)c3ccc(F)cc3)C[C@@H]12 1.17%
Cc1ccc(C(=O)NC2CCCN(c3cc(N(C)C)ncn3)C2)s1 (configuration not stated) -0.497%
O=C1CCCN1CCCN1C(=O)[C@@H]2C[C@@H](O)CN2C2(CN(C3CCC(F)(F)CC3)C2)C1=O -8.03%
C#CCNC(=O)CC[C@H]1CNC(=O)[C@@H]2[C@@H](CCN2Cc2ccc(C(F)(F)F)cc2)N1C -6.67%
COCC(=O)N[C@H]1CC[C@]2(C)CC[C@@H](C(C)C(=O)NC3CC3)[C@H](O)[C@H]2[C@@H]1C (some centres not stated) 3.33% [at 57.5 µM]
COc1ccc(F)c(-c2nc(CN(C)C(C)c3cccs3)c(C)o2)c1 (configuration not stated) -1%
Cc1cccc(CC(=O)N2CCC(n3cc(-c4nc(-c5ccccc5)no4)nn3)CC2)c1 0.0288%
Fc1ccc(-c2nnc3ccc(NCCc4ccccn4)nn23)nc1 -22.1% [at 57.5 µM]
CCCc1ccc2oc(C(=O)N(CC)Cc3ccncc3)c(C)c2c1 216%
CN(C)Cc1cc(-c2nccn2CC2(CO)CCCC2)ccc1O 2.34%
COc1ccc(Nc2cc3c(cn2)CN(CCc2ccccc2)CCN3)cn1 8.87% [at 57.5 µM]
O=C(O)CCn1ncc2cc(OCc3ccc(-c4cncnc4)cc3)ccc21 29.2% [at 57.5 µM]
CCCCN(C)C(=O)Cc1cccn1-c1cccc(Cl)c1 -6.5%
CCCC(C)N1CC2(CCN(C(=O)c3cnn4c3CCCC4)CC2)OC1=O (configuration not stated) 5.13%
Nc1nc(C2CC(O)C2)cc(N2CCC(O)(Cn3ccnc3)CC2)n1 (configuration not stated) 1.97%
O[C@H]1[C@H](NCc2ccc(-c3ccccc3)cc2)[C@H]2CO[C@H](O2)[C@@H]1Oc1ccccc1 3.6% [at 57.5 µM]
N[C@@H]1CCN(Cc2ccccc2OCc2ccc(Cl)cc2)C[C@H]1O 12.1%
COC(=O)[C@@H]1Cc2ncn(C(C)C)c2CN1S(=O)(=O)c1ccc(OC)cc1 -1.26% [at 57.5 µM]
O=C(O)CCC(=O)N[C@H]1CCN2C(=O)c3cc(-c4ccc(Cl)cc4)ccc3NC(=O)[C@H]12 -0.154% [at 57.5 µM]
Cc1cc(C)n(C2CCN(c3ncnc4c3c(C)nn4C)C2)n1 (configuration not stated) -26.2%
COc1nc2c(cc1CNC(=O)C1CCOC1)C(=O)N(CCc1ccccn1)C2 (configuration not stated) -6.59%
O=C1N(C2CCCCC2)C[C@H]2CN(Cc3cccc(Cl)c3)CCN12 9.31% [at 57.5 µM]
Cc1ccc(NC(=O)Cn2c(-c3ccc(F)cc3)nc(C)c(CCO)c2=O)cc1Cl -1.88%

Ordered by SMILES length (largest number first): part of the list above.
activity, negative = inhibition, inactive:
O=C(Nc1ccccc1)O[C@@H]1CO[C@H]2[C@@H]1OC[C@@H]2NCc1ccccc1 -1.59% [at 57.5 µM]
CC[C@H]1CN(S(=O)(=O)c2ccccc2)CC[C@H]1CC(=O)NCCOC 2.78% [at 57.5 µM]
COc1ccc(-c2ccc3ncc(Nc4ccc(CCO)cc4)n3n2)cn1 -0.973% [at 57.5 µM]
OC1CC(c2cc(NCCCn3ccc4ccccc43)ncn2)C1 (configuration not stated) 1.6%

Fetched one by one from above (2):
activity, negative = inhibition, inactive:
COCc1cc(CNC(=O)c2cn(C3CCC(N)CC3)nn2)[nH]n1 (configuration not stated) -1.37%
O=C(CCc1nc2ccccc2s1)N[C@H](c1ccccn1)C1CC(O)C1 (some centres not stated) 1.88%
